Entries after “also recorded” stand apart in the source; their conditions may differ. For at least one compound, name, drawing or mass did not settle the structure.
Experiments:
[1] = tested on: H. pylori; test: MIC against 9 strains of H. pylori; format: cell-based
Method: MICs (μg/ml) of several substances against 9 strains (ATCC43504, ATCC43629, ATCC43526,ATCC43579,ATCC49503,ATCC51110,ATCC51652,ATCC51653, ATCC51932) of H. pylori were examined. NE-2001 had minimal inhibitory concentrations (MICs) ranging from 0.10 to 0.48 μg/ml.

[2] = tested on: H. pylori; test: Bactericidal effect against H. pylori (time course, various concentrations and pH); format: cell-based
Method: FIG. 2 illustrates the anti-H. pylori effects of the compound NE-2001. Bactericidal effect was examined at various concentration (0.15-2.50 μg/ml) for 168 hours. […] No visible organism was detected in 3 hr at a concentration of ≧1.25 μg/ml.

Cc1ccc(COC(=O)c2ccc(-c3ccc(OC(=O)c4ccc(CNC(=N)N)cc4)cc3)cc2)cc1 [NE-2001, 4-(4-methylbenzyl)-4′-[guanidinomethylbenzoyloxy] biphenyl-4-carboxylate]
growth of H. pylori [1]: specifically inhibited the growth of H. pylori
bactericidal effect against H. pylori ([2]; 0.15-2.50 μg/ml, 168 hours): strong bactericidal effect
bactericidal effect at various pH ([2]; pH3-7): completely eradicated H. pylori at various pH; also recorded: bactericidal effect against H. pylori in all tested pH range

Reference: US6734212B2, “Methods and compositions for treating or preventing bacterial infection” (Shanghai East Best Biopharmaceutical, priority 2001, dated 2004)
